Reference: patent publication US8338472B2, “Hexahydrocyclopentyl[F]indazole carboxamides and derivatives thereof as selective glucocorticoid receptor modulators” (Merck Sharp & Dohme Corp., priority 2008, dated 2012)
Some results were stated once for a whole list of compounds, not compound by compound.

Tests used:
human GR = target: T1, human GR (Homo sapiens, UniProt P04150); experiment: Transrepression Assay (GITAR), TNFα-β-lactamase reporter gene in U937 cells; type: cell-based; conditions: 100 nM dexamethasone = 100%
T1 construct: U937 cells contain an endogenous glucocorticoid receptor (GR); endogenous in cells; host or cells: U937 cells stably transfected with the TNF-alpha promoter/beta-lactamase reporter
T1 sequence (P04150 1-777): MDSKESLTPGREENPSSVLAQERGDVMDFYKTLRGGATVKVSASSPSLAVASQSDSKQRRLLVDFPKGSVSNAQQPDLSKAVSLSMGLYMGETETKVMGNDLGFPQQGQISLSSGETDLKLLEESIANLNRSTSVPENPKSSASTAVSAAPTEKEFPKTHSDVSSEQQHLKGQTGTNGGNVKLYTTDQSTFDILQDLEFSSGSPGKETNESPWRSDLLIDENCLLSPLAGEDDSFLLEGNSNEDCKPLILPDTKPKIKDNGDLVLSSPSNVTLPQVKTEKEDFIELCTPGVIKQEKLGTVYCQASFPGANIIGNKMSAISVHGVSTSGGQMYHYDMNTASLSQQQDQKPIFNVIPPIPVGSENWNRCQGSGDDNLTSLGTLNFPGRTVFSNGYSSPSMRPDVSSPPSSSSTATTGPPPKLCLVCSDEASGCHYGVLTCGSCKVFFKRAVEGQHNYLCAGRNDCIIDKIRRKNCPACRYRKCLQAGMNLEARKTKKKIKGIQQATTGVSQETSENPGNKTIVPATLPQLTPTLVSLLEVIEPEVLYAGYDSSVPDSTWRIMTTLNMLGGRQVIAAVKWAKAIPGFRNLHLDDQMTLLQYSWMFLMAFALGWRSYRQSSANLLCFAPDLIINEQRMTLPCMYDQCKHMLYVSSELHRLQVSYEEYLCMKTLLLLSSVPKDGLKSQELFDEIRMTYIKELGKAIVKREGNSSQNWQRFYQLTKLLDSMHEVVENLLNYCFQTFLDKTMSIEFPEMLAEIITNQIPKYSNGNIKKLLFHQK
Text: Transrepression Assay (GITAR)
This assay assesses the ability of test compounds to control transcription from the TNFα-β-lactamase reporter gene in U937 cells, a human myelomonocytic leukemia cell line that naturally expresses the human GR. The assay measures compound dependent-repression of the TNFa promoter linked to a reporter gene.
The human U937 cells that had been stablely transfected with the TNF-α promoter driving β-lactamase are used for this assay. U937 cells contain an endogenous glucocorticoid receptor (GR). Cells are maintained in RPMI 1640 Growth medium (Gibco Cat#11875-093) containing 25 mM HEPES, 10% FBS, 2 mM L-Glutamine, 1 mM Sodium pyruvate, 25 μg/ml Gentamicin (Gibco Cat#15710-064), 1:1000 2-Mercaptoethanol (Gibco Cat#21985-023) and 0.8 mg/ml G418 (Gibco Cat#10131-027). The density of the cells in the flask needs to be about 1×10^6−3×10^6/ml at the time of harvest. Usually, the cells are split to 1.2˜1.4×10^5/ml (1:10) 3 days prior to the assay. 50,000 cells/well are plated in 96 well black-walled plates the day of assay. Test compounds are added 10 pt/well, and cells are incubated at 37° C. for 30-45 min. For assaying compounds, first dilute 1:10 in DMSO to make 1 mM, then further dilute 1:100 in medium to make 10× stock prior to adding to the cells. Add 50 ng/ml PMA (Sigma, cat# P8139) 10 μL/well to a final concentration 5 ng/ml, and 1 μg/ml LPS (Sigma, cat# L4130) 10 μL/well to a final concentration 100 ng/ml. Incubate cells at 37° C. overnight for ˜18 hr. PMA is stored frozen as 100 μg/ml stock in DMSO. Dilute 1:10 in DMSO for a working stock of 10 μg/ml and store at −20C. For assaying, dilute the […] working stock 1:200 in medium to make a 10× solution (50 ng/ml). Store frozen LPS at 1 mg/ml in PBS, dilute 1:1000 in medium to make 10× (1 μg/ml) for the assay. Add 6× loading buffer (CCF2−AM) 20 μL/well, and incubate at room temperature for 70-90 min. […] The activity repressed by 100 nM dexamethasone alone is set as 100% activity.

[1] = target: T2, glucocorticoid receptor (GR) (Homo sapiens, UniProt P04150); experiment: Ligand binding assay (GR BIND), 3H-dexamethasone displacement in MDA-MB-453 cell lysate; conditions: read-out: IC50 in the ligand binding assay; DEX as a reference
T2 sequence (P04150 1-777): T1 sequence (P04150 1-777)

SMILES	maximal activity in the transrepression assay (GITAR) (human GR)	IC50 [1]
CCCN(CC1CCCO1)C(=O)[C@H]1CCC2=Cc3c(cnn3-c3ccc(F)cc3)C[C@@]21C (stereo partly drawn) [Compound 63, (4αR,5S)-1-(4-fluorophenyl)-4α-methyl-N-propyl-N-(tetrahydrofuran-2-ylmethyl)-1,4,4α,5,6,7-hexahydrocyclopenta[f]indazole-5-carboxamide]	greater than 5%	< 1 µM
CCN(CC(O)C(F)(F)F)C(=O)[C@H]1CCC2=Cc3c(cnn3-c3ccc(F)cc3)C[C@@]21C (stereo partly drawn) [Compound 72, (4αR,5S)-N-ethyl-1-(4-fluorophenyl)-4α-methyl-N-(3,3,3-trifluoro-2-hydroxypropyl)-1,4,4α,5,6,7-hexahydrocyclopenta[f]indazole-5-carboxamide]	greater than 5%	< 1 µM
CN(CC(O)C(F)(F)F)C(=O)[C@H]1CCC2=Cc3c(cnn3-c3ccccc3)C[C@@]21C (stereo partly drawn) [Compound 75, (4αR,5S)-N,4α-dimethyl-1-phenyl-N-(3,3,3-trifluoro-2-hydroxypropyl)-1,4,4α,5 ,6,7-hexahydrocyclopenta[f]indazole-5-carboxamide]	greater than 5%	< 1 µM
CCN(CC(O)C(F)(F)F)C(=O)[C@H]1CCC2=Cc3c(cnn3-c3ccccc3)C[C@@]21C (stereo partly drawn) [Compound 77, (4αR,5S)-N-ethyl-4α-methyl-1-phenyl-N-(3,3,3-trifluoro-2-hydroxypropyl)-1,4,4α,5,6,7-hexahydrocyclopenta[f]indazole-5-carboxamide]	greater than 5%	< 1 µM
C[C@]12Cc3cnn(-c4ccc(F)cc4)c3C=C1CC[C@@H]2C(=O)N(CCc1ccccc1F)CC(O)C(F)(F)F (stereo partly drawn) [Compound 92, (4αR,5S)-1-(4-fluorophenyl)-N-[2-(2-fluorophenyl)ethyl]-4α-methyl-N(3,3,3-trifluoro-2-hydroxypropyl)-1,4,4α,5,6,7-hexahydrocyclopenta[f]indazole-5-carboxamide]	greater than 5%	< 1 µM

More lines, now with the values ahead:

maximal activity in the transrepression assay (GITAR) (human GR)	IC50 [1]	SMILES
greater than 5%	< 1 µM	C[C@]12Cc3cnn(-c4ccc(F)cc4)c3C=C1CC[C@@H]2C(=O)N(CCc1ccccc1F)CC(O)C(F)(F)F (stereo partly drawn) [Compound 93, (4αR,5S)-1-(4-fluorophenyl)-N-[2-(2-fluorophenyl)ethyl]-4α-methyl-N-(3,3,3-trifluoro-2-hydroxypropyl)-1,4,4α,5,6,7-hexahydrocyclopenta[f]indazole-5-carboxamide]
greater than 5%	< 1 µM	C[C@]12Cc3cnn(-c4ccc(F)cc4)c3C=C1CC[C@@H]2C(=O)N(CCc1ccccc1F)CC(O)CC(F)(F)F (stereo partly drawn) [Compound 94, (4αR,5S)-l-(4-fluorophenyl)-N-[2-(2-fluorophenyl)ethyl]-4α-methyl-N-(4,4,4-trifluoro-2-hydroxybutyl)-1,4,4α,5,6,7-hexahydrocyclopenta[f]indazole-5-carboxamide]
greater than 5%	< 1 µM	C[C@]12Cc3cnn(-c4ccc(F)cc4)c3C=C1CC[C@@H]2C(=O)N(CCc1ccccc1F)CC(O)CC(F)(F)F (stereo partly drawn) [Compound 95, (4αR,5S)-1-(4-fluorophenyl)-N-[2-(2-fluorophenyl)ethyl]-4α-methyl-N-(4,4,4-trifluoro-2-hydroxybutyl)-1,4,4α,5,6,7-hexahydrocyclopenta[f]indazole-5-carboxamide]
